Data as given in PubChem BioAssay AID743454 (Peter MacCallum Cancer Centre, 2014)

Purpose: 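Search for knock-downs that restore vorinostat killing in resistant colon cancer cells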 (primary screen)
Cell system: human HCT116-VR colon cancer cells, selected for vorinostat resistance
Reagent: siRNA pool against human genes, 40 nM siRNA pool
Timing: vorinostat for 24 h, read-out about 72 h after transfection
Conditions: vorinostat at 2.5 µM final
Detection: 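Cell viability by CellTiter-Fluor and caspase 3/7 activity by luminescence, each scaled to mock wells per plate, duplicates averaged, then robust z-scored over all plates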
Reading the numbers: viability robust z-score: higher = more viable cells than screen typical; caspase robust z-score: higher = more caspase 3/7 activity than screen typical
Active means: 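a knock-down is a hit when classed RV1 or RV2 for lowered viability, or CA1 or CA2 for caspase activation; those lethal without drug were dropped; hits were retested singly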
This is an unselected part of about 18,000 reagents tested. 450 of all reagents (2.5%) were called active. 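Single biological run; no consistent viability z cut-off exists, so the class columns, not z-scores, define the calls.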 No sequences are given here.

target | viability hit class | caspase hit class | viability robust z-score | caspase robust z-score | outcome
NBPF3 (NBPF member 3) | no change | no change | 1.31 | -0.11 | inactive
WDR89 (WD repeat domain 89) | no change | no change | -2.21 | 0.03 | inactive
SDHAF1 (succinate dehydrogenase complex assembly factor 1) | no change | no change | -0.41 | -1.02 | inactive
WRN (WRN RecQ like helicase) | no change | no change | -1.25 | 2.7 | inactive
SULF2 (sulfatase 2) | no change | no change | -0.68 | -0.76 | inactive
RPS6KC1 (ribosomal protein S6 kinase C1) | no change | no change | 0.14 | 0.75 | inactive
B3GNT7 | no change | no change | -0.36 | 0.02 | inactive
FERMT3 (FERM domain containing kindlin 3) | no change | no change | 0.95 | -0.12 | inactive
EFHD2 (EF-hand domain family member D2) | no change | no change | -1.14 | 4.75 | inactive
PRAMEF9 (PRAME family member 9) | no change | no change | 0.97 | 2.28 | inactive
SNRNP35 (small nuclear ribonucleoprotein U11/U12 subunit 35) | no change | no change | -1.42 | 0.83 | inactive
CAMK2N2 (calcium/calmodulin dependent protein kinase II inhibitor 2) | no change | no change | 0.31 | 1.02 | inactive
PRDM5 (PR/SET domain 5) | no change | no change | 1.1 | -0.06 | inactive
GOLPH3 (golgi phosphoprotein 3) | no change | no change | 0.42 | -0.4 | inactive
DNAJC15 (DnaJ heat shock protein family (Hsp40) member C15) | no change | no change | -0.36 | -1.34 | inactive
KRT75 (keratin 75) | no change | no change | 0.38 | 0 | inactive
PCDHGA9 (protocadherin gamma subfamily A, 9) | no change | no change | -0.12 | 0.77 | inactive
HSDL2 (hydroxysteroid dehydrogenase like 2) | no change | no change | -0.53 | -0.7 | inactive
KLF15 (KLF transcription factor 15) | no change | no change | -0.42 | 1.11 | inactive
PCDHB13 (protocadherin beta 13) | no change | no change | -0.68 | 0.94 | inactive
MARCHF5 (membrane associated ring-CH-type finger 5) | no change | no change | -2.04 | 4.88 | inactive
PRKG2 (protein kinase cGMP-dependent 2) | no change | no change | 0.12 | -0.4 | inactive
ARHGEF7 (Rho guanine nucleotide exchange factor 7) | no change | no change | -0.23 | 0.07 | inactive
MMP14 (matrix metallopeptidase 14) | no change | no change | -0.34 | -0.39 | inactive
APOC4 (apolipoprotein C4) | no change | no change | -0.5 | 4.32 | inactive
SLITRK2 (SLIT and NTRK like family member 2) | no change | no change | -0.44 | -0.89 | inactive
SLC24A3 | no change | no change | -0.47 | 1.58 | inactive
CLINT1 (clathrin interactor 1) | no change | no change | -1.7 | 0.92 | inactive
MDK (midkine) | no change | no change | 0.46 | 2.1 | inactive
MAGEA6 (MAGE family member A6) | no change | no change | 1.22 | -0.15 | inactive
TXNDC9 (thioredoxin domain containing 9) | no change | no change | -0.82 | 3.84 | inactive
IL22RA2 (interleukin 22 receptor subunit alpha 2) | no change | no change | 1.14 | 0.46 | inactive
BAG4 (BAG cochaperone 4) | no change | no change | 1.3 | 0.12 | inactive
L3MBTL4 (L3MBTL histone methyl-lysine binding protein 4) | no change | no change | 0.31 | -1.04 | inactive
MAK (male germ cell associated kinase) | no change | no change | 0.2 | 0.3 | inactive
PRIM2 (DNA primase subunit 2) | no change | no change | 1.18 | -0.24 | inactive
DDIT3 (DNA damage inducible transcript 3) | no change | no change | -0.64 | 1.6 | inactive
CIMIP4 (ciliary microtubule inner protein 4) | no change | no change | -0.66 | -0.6 | inactive
SEL1L3 (SEL1L family member 3) | no change | no change | 1.2 | -0.24 | inactive
TLR1 (toll like receptor 1) | no change | no change | 0.73 | -0.01 | inactive
PCID2 (PCI domain containing 2) | no change | no change | 0.15 | 0.34 | inactive
CHTF18 (chromosome transmission fidelity factor 18) | no change | no change | 1.18 | -0.7 | inactive
EVA1C (eva-1 homolog C) | no change | no change | -1.48 | 2.88 | inactive
LCN2 (lipocalin 2) | no change | no change | 0.59 | 2.37 | inactive
CCNF (cyclin F) | no change | no change | 0.54 | 0.86 | inactive
SENP6 (SUMO specific peptidase 6) | no change | no change | 0.15 | -0.3 | inactive
ZNF350 (zinc finger protein 350) | no change | no change | 0.37 | 1.98 | inactive
KIT (KIT proto-oncogene, receptor tyrosine kinase) | no change | no change | -0.58 | -1.44 | inactive
BRMS1L (BRMS1 like transcriptional repressor) | no change | no change | 0.99 | 0.54 | inactive
IL17RB (interleukin 17 receptor B) | no change | no change | -0.86 | -0.16 | inactive
SERPINB4 (serpin family B member 4) | no change | no change | -0.35 | -0.96 | inactive
ELL3 (elongation factor for RNA polymerase II 3) | no change | no change | 0.57 | -0.24 | inactive
ZFYVE21 (zinc finger FYVE-type containing 21) | no change | no change | 0.66 | 0.97 | inactive
NLE1 (notchless homolog 1) | no change | no change | 0.6 | -0.22 | inactive
AGFG2 (ArfGAP with FG repeats 2) | no change | no change | -0.68 | 0.68 | inactive
CADM4 (cell adhesion molecule 4) | no change | no change | -1.21 | 4.12 | inactive
SAYSD1 (SAYSVFN motif domain containing 1) | no change | no change | -0.83 | 2.11 | inactive
POSTN (periostin) | no change | no change | 0.45 | 0.54 | inactive
ZSCAN18 (zinc finger and SCAN domain containing 18) | no change | no change | 0.32 | -0.4 | inactive
FZD2 (frizzled class receptor 2) | no change | no change | -0.43 | 4.05 | inactive
OR52N5 (olfactory receptor family 52 subfamily N member 5) | no change | no change | -1.14 | 0.17 | inactive
MT4 (metallothionein 4) | no change | no change | 0.5 | 0.22 | inactive
LIG1 (DNA ligase 1) | no change | no change | -0.15 | 0.04 | inactive
POMGNT1 | no change | no change | -0.01 | 0.78 | inactive
SYAP1 (synapse associated protein 1) | no change | no change | 2.55 | 0.12 | inactive
PHF8 (PHD finger protein 8) | no change | no change | -0.52 | -1.31 | inactive
ALDH1A2 (aldehyde dehydrogenase 1 family member A2) | no change | no change | 0.45 | -0.64 | inactive
PARP12 (poly(ADP-ribose) polymerase family member 12) | no change | no change | 1.32 | 0.48 | inactive
TRPT1 (tRNA phosphotransferase 1) | no change | no change | -1.28 | 2.06 | inactive
RBM41 (RNA binding motif protein 41) | no change | no change | 0.22 | -0.29 | inactive
SYCE1 (synaptonemal complex central element protein 1) | no change | no change | 1.5 | -0.56 | inactive
CKAP2 (cytoskeleton associated protein 2) | no change | no change | 0.38 | -0.53 | inactive
EME1 (essential meiotic structure-specific endonuclease 1) | no change | no change | -0.9 | 3.65 | inactive
